Results published in article PMC10873312.
Like-named read-outs stand apart in the source and are kept apart here. Results are given in words; binding and its absence hold for the method and conditions named. Binding seen in cells or lysates may run through a third protein. Some binding calls cover weakened binding; strength is not graded here. For some assays here: Where a sequence is shown, tags or fusion partners need not be part of it.

Protein sequences, listed by entry. Tags and fused reporters are not part of them.
UniProt Q00534: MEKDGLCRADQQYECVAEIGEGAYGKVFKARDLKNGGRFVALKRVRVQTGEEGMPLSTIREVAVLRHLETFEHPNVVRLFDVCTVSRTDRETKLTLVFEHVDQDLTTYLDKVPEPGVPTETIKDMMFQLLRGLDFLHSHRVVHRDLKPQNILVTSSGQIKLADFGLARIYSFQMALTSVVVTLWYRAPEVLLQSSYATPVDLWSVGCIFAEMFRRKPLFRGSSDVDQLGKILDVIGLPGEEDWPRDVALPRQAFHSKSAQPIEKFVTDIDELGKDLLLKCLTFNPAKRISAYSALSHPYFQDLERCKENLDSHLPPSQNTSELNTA
UniProt P27708: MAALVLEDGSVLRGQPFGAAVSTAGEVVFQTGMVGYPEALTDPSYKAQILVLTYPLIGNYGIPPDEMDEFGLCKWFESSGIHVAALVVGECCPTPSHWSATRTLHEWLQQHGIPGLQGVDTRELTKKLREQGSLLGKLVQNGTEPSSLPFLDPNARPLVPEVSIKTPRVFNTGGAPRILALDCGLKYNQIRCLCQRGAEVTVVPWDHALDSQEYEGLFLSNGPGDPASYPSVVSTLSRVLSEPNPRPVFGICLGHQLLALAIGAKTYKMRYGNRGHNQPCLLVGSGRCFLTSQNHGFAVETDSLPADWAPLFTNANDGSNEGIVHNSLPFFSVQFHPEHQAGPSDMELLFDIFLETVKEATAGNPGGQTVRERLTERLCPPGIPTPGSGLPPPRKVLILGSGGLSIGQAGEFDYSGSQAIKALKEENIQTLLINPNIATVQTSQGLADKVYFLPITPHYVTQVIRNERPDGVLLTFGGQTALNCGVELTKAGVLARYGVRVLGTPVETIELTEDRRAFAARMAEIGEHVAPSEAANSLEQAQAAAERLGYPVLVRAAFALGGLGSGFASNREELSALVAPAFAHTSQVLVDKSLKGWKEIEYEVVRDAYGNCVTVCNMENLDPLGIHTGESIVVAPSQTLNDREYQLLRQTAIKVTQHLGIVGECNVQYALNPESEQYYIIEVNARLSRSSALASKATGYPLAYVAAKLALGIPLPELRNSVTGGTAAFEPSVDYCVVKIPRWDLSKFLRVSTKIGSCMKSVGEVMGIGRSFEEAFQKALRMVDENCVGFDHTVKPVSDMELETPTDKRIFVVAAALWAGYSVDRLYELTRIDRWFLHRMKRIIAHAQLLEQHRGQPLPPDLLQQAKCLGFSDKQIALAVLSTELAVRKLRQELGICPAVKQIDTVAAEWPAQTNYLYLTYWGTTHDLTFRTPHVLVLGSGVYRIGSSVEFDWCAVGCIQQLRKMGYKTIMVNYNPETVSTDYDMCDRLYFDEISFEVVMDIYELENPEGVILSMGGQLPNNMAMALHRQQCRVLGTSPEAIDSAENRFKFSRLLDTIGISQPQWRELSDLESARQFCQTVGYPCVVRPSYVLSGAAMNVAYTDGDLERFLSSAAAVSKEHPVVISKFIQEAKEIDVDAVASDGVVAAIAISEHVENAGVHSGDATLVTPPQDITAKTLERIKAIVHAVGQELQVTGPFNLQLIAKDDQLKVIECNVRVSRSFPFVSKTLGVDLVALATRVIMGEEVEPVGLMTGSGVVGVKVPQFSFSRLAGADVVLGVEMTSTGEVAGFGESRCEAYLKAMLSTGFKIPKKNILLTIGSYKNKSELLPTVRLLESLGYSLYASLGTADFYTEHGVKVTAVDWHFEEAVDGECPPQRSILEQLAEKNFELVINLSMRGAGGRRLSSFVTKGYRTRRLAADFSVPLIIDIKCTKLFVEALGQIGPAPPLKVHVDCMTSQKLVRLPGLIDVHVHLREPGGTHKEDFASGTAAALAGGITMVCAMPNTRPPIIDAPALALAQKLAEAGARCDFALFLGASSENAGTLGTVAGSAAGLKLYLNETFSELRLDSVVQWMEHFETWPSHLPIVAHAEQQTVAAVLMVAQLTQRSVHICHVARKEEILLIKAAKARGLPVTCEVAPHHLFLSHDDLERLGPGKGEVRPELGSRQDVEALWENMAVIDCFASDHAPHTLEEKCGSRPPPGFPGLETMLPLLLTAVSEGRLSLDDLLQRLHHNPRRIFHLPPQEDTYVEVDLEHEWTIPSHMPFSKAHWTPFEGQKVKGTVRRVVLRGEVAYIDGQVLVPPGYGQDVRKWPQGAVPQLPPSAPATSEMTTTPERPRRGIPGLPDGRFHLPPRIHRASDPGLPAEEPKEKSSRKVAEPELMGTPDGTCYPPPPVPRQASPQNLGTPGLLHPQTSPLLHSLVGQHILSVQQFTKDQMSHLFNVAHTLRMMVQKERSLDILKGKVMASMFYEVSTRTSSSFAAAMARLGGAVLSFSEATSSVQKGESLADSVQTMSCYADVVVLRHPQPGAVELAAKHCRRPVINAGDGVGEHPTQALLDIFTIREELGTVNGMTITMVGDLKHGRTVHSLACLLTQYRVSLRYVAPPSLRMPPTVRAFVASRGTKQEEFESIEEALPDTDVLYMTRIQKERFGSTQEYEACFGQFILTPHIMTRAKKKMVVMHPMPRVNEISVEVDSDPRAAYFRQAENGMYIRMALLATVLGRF
UniProt Q9QR71: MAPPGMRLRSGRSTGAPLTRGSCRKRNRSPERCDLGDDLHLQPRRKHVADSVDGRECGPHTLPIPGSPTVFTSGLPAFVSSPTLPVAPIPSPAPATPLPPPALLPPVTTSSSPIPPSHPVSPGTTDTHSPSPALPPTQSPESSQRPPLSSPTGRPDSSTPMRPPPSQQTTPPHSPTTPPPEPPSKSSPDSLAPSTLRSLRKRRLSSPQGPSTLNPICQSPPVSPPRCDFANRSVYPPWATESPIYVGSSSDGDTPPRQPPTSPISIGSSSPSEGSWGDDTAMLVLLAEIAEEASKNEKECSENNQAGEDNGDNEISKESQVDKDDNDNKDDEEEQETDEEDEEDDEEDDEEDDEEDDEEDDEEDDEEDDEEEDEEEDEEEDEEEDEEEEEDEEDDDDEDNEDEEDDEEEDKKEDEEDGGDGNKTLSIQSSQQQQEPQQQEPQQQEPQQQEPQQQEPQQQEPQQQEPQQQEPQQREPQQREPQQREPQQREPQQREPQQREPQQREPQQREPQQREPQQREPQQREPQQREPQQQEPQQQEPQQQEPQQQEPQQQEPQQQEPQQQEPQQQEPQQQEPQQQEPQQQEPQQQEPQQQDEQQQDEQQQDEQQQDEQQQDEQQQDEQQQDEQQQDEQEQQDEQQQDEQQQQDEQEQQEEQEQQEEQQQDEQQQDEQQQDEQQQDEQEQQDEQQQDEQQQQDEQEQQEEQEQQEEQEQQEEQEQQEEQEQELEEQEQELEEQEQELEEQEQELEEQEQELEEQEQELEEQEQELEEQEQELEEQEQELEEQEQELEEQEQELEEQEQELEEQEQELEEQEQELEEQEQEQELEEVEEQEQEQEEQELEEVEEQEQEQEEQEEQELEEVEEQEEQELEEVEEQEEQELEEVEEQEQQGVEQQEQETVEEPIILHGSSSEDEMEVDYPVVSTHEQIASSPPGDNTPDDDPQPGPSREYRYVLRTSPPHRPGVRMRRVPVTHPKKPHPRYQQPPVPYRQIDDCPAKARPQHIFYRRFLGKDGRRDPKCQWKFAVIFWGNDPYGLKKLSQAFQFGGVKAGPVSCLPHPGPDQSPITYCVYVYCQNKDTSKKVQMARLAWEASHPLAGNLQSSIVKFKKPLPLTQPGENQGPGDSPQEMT

What was measured:
[1] = target: Flag-CDK6 (Cyclin-dependent kinase 6) (UniProt Q00534); test: co-IP; 293T cells transfected with both expression plasmids for 48 h; whole cell lysates (Triton X-100 or NP40 buffer) precipitated with anti-Flag; immunoblotting
[2] = target: Flag-CAD (Carbamoyl-phosphate synthetase 2, aspartate transcarbamoylase, and dihydroorotase) (UniProt P27708); test: as above
[3] = target: Flag-CDK6 (Cyclin-dependent kinase 6) (UniProt Q00534); test: co-IP; 293T cells transfected with Flag-CDK6 with or without vCyclin for 48 h; whole cell lysates precipitated with anti-Flag (CDK6); endogenous CAD detected by immunoblotting
[4] = target: Flag-CAD (Carbamoyl-phosphate synthetase 2, aspartate transcarbamoylase, and dihydroorotase) (UniProt P27708); test: co-IP; 293T cells transfected with both expression plasmids for 48 h; whole cell lysates (Triton X-100 or NP40 buffer) precipitated with anti-Flag; immunoblotting; remark: listed apart in the source
[5] = target: endogenous CAD (human (endogenous in 293T and BC-3)) (UniProt P27708); test: co-IP; endogenous CAD and virally expressed vCyclin; 293T cells infected with KSHV (MOI = 5) for 48 h, whole cell lysates precipitated with IgG or anti-CAD; also the PEL cell line BC-3 harboring KSHV; immunoblotting

V5-CAD (from UniProt P27708 1-2225) (enzyme)
binding [1]: binds

Myc-LANA (KSHV latent protein) (from UniProt Q9QR71 1-1129)
binding [2]: no binding

endogenous CAD (from UniProt P27708 1-2225) (enzyme)
binding [3]: binds

B1: Myc-vCyclin (KSHV vCyclin) (protein, UniProt Q77Q36 1-257)
chain: MATANNPPSGLLDPTLCEDRIFYNILEIEPRFLTSDSVFGTFQQSLTSHMRKLLGTWMFSVCQEYNLEPNVVALALNLLDRLLLIKQVSKEHFQKTGSACLLVASKLRSLTPISTSSLCYAAADSFSRQELIDQEKELLEKLAWRTEAVLATDVTSFLLLKLLGGSQHLDFWHHEVNTLITKALVDPKTGSLPASIISAAGCALLVPANVIPQDTHSGGVVPQLASILGCDVSVLQAAVEQILTSVSDFDLRILDSY
binding [4]: binds

B2: virally expressed vCyclin (protein, UniProt Q77Q36 1-257)
chain: B1 chain
binding [5]: binds
